# Laboratory results taken from the supplement of paper PMC10077471.
# Over roughly 1,900 compounds, “excess over highest single agent (ExcessHSA) synergy score, 6x6 matrix” has its median near -83; the lowest 2% begin near -370. Some of the results follow.
# System: NCI-H446
# Assay: excess over highest single agent (ExcessHSA) synergy score, 6x6 matrix; higher = less synergy (more negative = stronger synergy)
# Details: 72 h; CellTiter-Glo viability
row,Structure (SMILES),excess over highest single agent
1,CC(=O)OCC(=O)[C@@]1(O)CC[C@H]2[C@@H]3CCC4=CC(=O)C=C[C@]4(C)[C@H]3[C@@H](O)C[C@@]21C + Cc1sc2c(c1C)C(c1ccc(Cl)cc1)=N[C@@H](CC(=O)OC(C)(C)C)c1nnc(C)n1-2 [NCGC00250412-19],-68.7
2,CS[C@H]1SC[C@H]2C(=O)N(C)[C@@H](C(C)C)C(=O)OC[C@@H](NC(=O)c3cnc4ccccc4n3)C(=O)N[C@@H](C)C(=O)N(C)[C@@H]1C(=O)N(C)[C@@H](C(C)C)C(=O)OC[C@@H](NC(=O)c1cnc3ccccc3n1)C(=O)N[C@@H](C)C(=O)N2C + Cc1sc2c(c1C)C(c1ccc(Cl)cc1)=N[C@@H](CC(=O)OC(C)(C)C)c1nnc(C)n1-2 [NCGC00250412-19],15.3
3,Cc1ccc2c(c1)c1c(n2CCc2ccc(C)nc2)CCN(C)C1 + Cc1sc2c(c1C)C(c1ccc(Cl)cc1)=N[C@@H](CC(=O)OC(C)(C)C)c1nnc(C)n1-2 [NCGC00250412-19],-121
4,CC[C@H](c1ccc(O)cc1)[C@@H](CC)c1ccc(O)cc1 + Cc1sc2c(c1C)C(c1ccc(Cl)cc1)=N[C@@H](CC(=O)OC(C)(C)C)c1nnc(C)n1-2 [NCGC00250412-19],-134
5,N#CC1(c2ccc(NC(=O)c3cccnc3NCc3ccncc3)cc2)CCCC1 + Cc1sc2c(c1C)C(c1ccc(Cl)cc1)=N[C@@H](CC(=O)OC(C)(C)C)c1nnc(C)n1-2 [NCGC00250412-19],-74.9
6,C[C@H](Cc1ccc(O)c(O)c1)[C@@H](C)Cc1ccc(O)c(O)c1 + Cc1sc2c(c1C)C(c1ccc(Cl)cc1)=N[C@@H](CC(=O)OC(C)(C)C)c1nnc(C)n1-2 [NCGC00250412-19],-373
7,O=C(/C=C/c1cccnc1)NCCCCC1CCN(C(=O)c2ccccc2)CC1 + Cc1sc2c(c1C)C(c1ccc(Cl)cc1)=N[C@@H](CC(=O)OC(C)(C)C)c1nnc(C)n1-2 [NCGC00250412-19],-55.6
8,NCCc1ccc(O)c(O)c1 + Cc1sc2c(c1C)C(c1ccc(Cl)cc1)=N[C@@H](CC(=O)OC(C)(C)C)c1nnc(C)n1-2 [NCGC00250412-19],1.43
9,CC1(C)Cc2c(sc(NC(=S)NC(=O)c3ccccc3)c2C(=O)O)CO1 + Cc1sc2c(c1C)C(c1ccc(Cl)cc1)=N[C@@H](CC(=O)OC(C)(C)C)c1nnc(C)n1-2 [NCGC00250412-19],46.2
10,COc1c(Cl)cc2c([nH]c3cnccc32)c1NC(=O)c1cccnc1C + Cc1sc2c(c1C)C(c1ccc(Cl)cc1)=N[C@@H](CC(=O)OC(C)(C)C)c1nnc(C)n1-2 [NCGC00250412-19],-170
11,C=C1/C(=C\C=C2/CCC[C@]3(C)[C@@H]([C@H](C)/C=C/C=C/C(O)(CC)CC)CC[C@@H]23)C[C@@H](O)C[C@@H]1O + Cc1sc2c(c1C)C(c1ccc(Cl)cc1)=N[C@@H](CC(=O)OC(C)(C)C)c1nnc(C)n1-2 [NCGC00250412-19],84.4
12,Cn1cnc2c(F)c(Nc3ccc(Br)cc3Cl)c(C(=O)NOCCO)cc21 + Cc1sc2c(c1C)C(c1ccc(Cl)cc1)=N[C@@H](CC(=O)OC(C)(C)C)c1nnc(C)n1-2 [NCGC00250412-19],-55
13,Nc1nc(N)c2nc(-c3cccc(O)c3)c(-c3cccc(O)c3)nc2n1 + Cc1sc2c(c1C)C(c1ccc(Cl)cc1)=N[C@@H](CC(=O)OC(C)(C)C)c1nnc(C)n1-2 [NCGC00250412-19],117
14,CC1(C)O[C@@H]2C[C@H]3[C@@H]4C[C@H](F)C5=CC(=O)C=C[C@]5(C)[C@H]4[C@@H](O)C[C@]3(C)[C@]2(C(=O)CO)O1 + Cc1sc2c(c1C)C(c1ccc(Cl)cc1)=N[C@@H](CC(=O)OC(C)(C)C)c1nnc(C)n1-2 [NCGC00250412-19],-48.9
15,COC1(C[S+]([O-])c2ccccc2)CCN(CCc2c[nH]c3ccc(F)cc23)CC1 (stereo unspecified) + Cc1sc2c(c1C)C(c1ccc(Cl)cc1)=N[C@@H](CC(=O)OC(C)(C)C)c1nnc(C)n1-2 [NCGC00250412-19],-115
16,CCCC[N+]1(C)[C@@H]2C[C@@H](OC(=O)[C@H](CO)c3ccccc3)C[C@H]1[C@@H]1O[C@@H]12 (stereo partly specified) + Cc1sc2c(c1C)C(c1ccc(Cl)cc1)=N[C@@H](CC(=O)OC(C)(C)C)c1nnc(C)n1-2 [NCGC00250412-19],-86.9
17,CN(Cc1cc(Br)cc(Br)c1N)C1CCCCC1 + Cc1sc2c(c1C)C(c1ccc(Cl)cc1)=N[C@@H](CC(=O)OC(C)(C)C)c1nnc(C)n1-2 [NCGC00250412-19],-97.4
18,Clc1ccc(-c2nc3sccn3c2C=NOCc2ccc(Cl)c(Cl)c2)cc1 + Cc1sc2c(c1C)C(c1ccc(Cl)cc1)=N[C@@H](CC(=O)OC(C)(C)C)c1nnc(C)n1-2 [NCGC00250412-19],-98.8

# Two records picked at random from those above, as already listed:
row,Structure (SMILES),excess over highest single agent
2,CS[C@H]1SC[C@H]2C(=O)N(C)[C@@H](C(C)C)C(=O)OC[C@@H](NC(=O)c3cnc4ccccc4n3)C(=O)N[C@@H](C)C(=O)N(C)[C@@H]1C(=O)N(C)[C@@H](C(C)C)C(=O)OC[C@@H](NC(=O)c1cnc3ccccc3n1)C(=O)N[C@@H](C)C(=O)N2C + Cc1sc2c(c1C)C(c1ccc(Cl)cc1)=N[C@@H](CC(=O)OC(C)(C)C)c1nnc(C)n1-2 [NCGC00250412-19],15.3
16,CCCC[N+]1(C)[C@@H]2C[C@@H](OC(=O)[C@H](CO)c3ccccc3)C[C@H]1[C@@H]1O[C@@H]12 (stereo partly specified) + Cc1sc2c(c1C)C(c1ccc(Cl)cc1)=N[C@@H](CC(=O)OC(C)(C)C)c1nnc(C)n1-2 [NCGC00250412-19],-86.9

# Continuation.

row,Structure (SMILES),excess over highest single agent
1,Cn1c(N2CCCCS2(=O)=O)nc(C(=O)NCc2ccc(F)cc2)c(O)c1=O + Cc1sc2c(c1C)C(c1ccc(Cl)cc1)=N[C@@H](CC(=O)OC(C)(C)C)c1nnc(C)n1-2 [NCGC00250412-19],5.46
2,C[C@H]1COC2(CCN(c3nc(=O)c4cc(C(F)(F)F)cc([N+](=O)[O-])c4s3)CC2)O1 + Cc1sc2c(c1C)C(c1ccc(Cl)cc1)=N[C@@H](CC(=O)OC(C)(C)C)c1nnc(C)n1-2 [NCGC00250412-19],70.9
3,Cn1cnc(=N)c2[nH]cnc21 + Cc1sc2c(c1C)C(c1ccc(Cl)cc1)=N[C@@H](CC(=O)OC(C)(C)C)c1nnc(C)n1-2 [NCGC00250412-19],-164
4,Cc1ccc(C(=O)N(CCCN)[C@@H](c2oc3cc(Cl)ccc3c(=O)c2Cc2ccccc2)C(C)C)cc1 + Cc1sc2c(c1C)C(c1ccc(Cl)cc1)=N[C@@H](CC(=O)OC(C)(C)C)c1nnc(C)n1-2 [NCGC00250412-19],-95.5
5,Cc1cccc(C)c1NC(=O)CN1CCCC1=O + Cc1sc2c(c1C)C(c1ccc(Cl)cc1)=N[C@@H](CC(=O)OC(C)(C)C)c1nnc(C)n1-2 [NCGC00250412-19],-220
6,C=CC[N+]1([C@H]2C[C@H]3[C@@H]4CC[C@H]5C[C@H](O)[C@@H](N6CCOCC6)C[C@]5(C)[C@H]4CC[C@]3(C)[C@H]2OC(C)=O)CCCC1 + Cc1sc2c(c1C)C(c1ccc(Cl)cc1)=N[C@@H](CC(=O)OC(C)(C)C)c1nnc(C)n1-2 [NCGC00250412-19],27.4
7,CC(C)(C)NC(=O)[C@H]1CC[C@H]2[C@@H]3CC[C@H]4NC(=O)C=C[C@]4(C)[C@H]3CC[C@]12C + Cc1sc2c(c1C)C(c1ccc(Cl)cc1)=N[C@@H](CC(=O)OC(C)(C)C)c1nnc(C)n1-2 [NCGC00250412-19],58.4
8,COc1ccc(CCC(=O)Nc2nc3ccc(Cl)cc3s2)cc1OC + Cc1sc2c(c1C)C(c1ccc(Cl)cc1)=N[C@@H](CC(=O)OC(C)(C)C)c1nnc(C)n1-2 [NCGC00250412-19],74.6
9,COc1ccc(-c2cc3nccn3c(Nc3ncccc3C(N)=O)n2)cc1OC + Cc1sc2c(c1C)C(c1ccc(Cl)cc1)=N[C@@H](CC(=O)OC(C)(C)C)c1nnc(C)n1-2 [NCGC00250412-19],-76.6
10,C=C1C(=O)O[C@H]2[C@H]1CC/C(C)=C/CC[C@@]1(C)O[C@@H]21 + Cc1sc2c(c1C)C(c1ccc(Cl)cc1)=N[C@@H](CC(=O)OC(C)(C)C)c1nnc(C)n1-2 [NCGC00250412-19],-213
11,C[C@]12CC[C@H](O)CC1=CC[C@@H]1[C@@H]2CC[C@]2(C)C(c3cccnc3)=CC[C@@H]12 + Cc1sc2c(c1C)C(c1ccc(Cl)cc1)=N[C@@H](CC(=O)OC(C)(C)C)c1nnc(C)n1-2 [NCGC00250412-19],-23.9
12,COc1ccc(CCC(=O)c2c(O)cc(O[C@@H]3O[C@H](CO)[C@@H](O)[C@H](O)[C@H]3O[C@@H]3O[C@@H](C)[C@H](O)[C@@H](O)[C@H]3O)cc2O)cc1O + Cc1sc2c(c1C)C(c1ccc(Cl)cc1)=N[C@@H](CC(=O)OC(C)(C)C)c1nnc(C)n1-2 [NCGC00250412-19],2.7
13,O=[N+]([O-])c1cn2c(n1)OC[C@@H](OCc1ccc(OC(F)(F)F)cc1)C2 + Cc1sc2c(c1C)C(c1ccc(Cl)cc1)=N[C@@H](CC(=O)OC(C)(C)C)c1nnc(C)n1-2 [NCGC00250412-19],2.42
14,Cn1nnc2c(C(N)=O)ncn2c1=O + Cc1sc2c(c1C)C(c1ccc(Cl)cc1)=N[C@@H](CC(=O)OC(C)(C)C)c1nnc(C)n1-2 [NCGC00250412-19],-118
15,CC[C@@H](C(=O)[C@@H](C)[C@@H](O)[C@H](C)[C@@H]1O[C@@H]([C@@H](CC)C(=O)O)CC[C@@H]1C)[C@H]1O[C@]2(C=C[C@@H](O)[C@]3(CC[C@@](C)([C@H]4CC[C@](O)(CC)[C@H](C)O4)O3)O2)[C@H](C)C[C@@H]1C + Cc1sc2c(c1C)C(c1ccc(Cl)cc1)=N[C@@H](CC(=O)OC(C)(C)C)c1nnc(C)n1-2 [NCGC00250412-19],-237
16,O=C(O)C(=O)c1cn(Cc2ccccc2)c2ccc(-c3ccc(OC(F)(F)F)cc3)cc12 + Cc1sc2c(c1C)C(c1ccc(Cl)cc1)=N[C@@H](CC(=O)OC(C)(C)C)c1nnc(C)n1-2 [NCGC00250412-19],-25.5
17,Cc1[nH]nc2ccc(-c3cncc(OC[C@@H](N)Cc4ccccc4)c3)cc12 + Cc1sc2c(c1C)C(c1ccc(Cl)cc1)=N[C@@H](CC(=O)OC(C)(C)C)c1nnc(C)n1-2 [NCGC00250412-19],5.66
18,CC(C)[C@H](O)C(=O)N[C@@H](C)C(=O)N[C@@H]1C(=O)N(C)CCc2ccccc21 + Cc1sc2c(c1C)C(c1ccc(Cl)cc1)=N[C@@H](CC(=O)OC(C)(C)C)c1nnc(C)n1-2 [NCGC00250412-19],-262
